These results are taken from PMC12817895.

The chains behind the UniProt entries cited, without tags or fusion partners. Where a name states a change or a piece, a line headed by the entry shows the natural chain unless it says otherwise.
UniProt Q5YFH7: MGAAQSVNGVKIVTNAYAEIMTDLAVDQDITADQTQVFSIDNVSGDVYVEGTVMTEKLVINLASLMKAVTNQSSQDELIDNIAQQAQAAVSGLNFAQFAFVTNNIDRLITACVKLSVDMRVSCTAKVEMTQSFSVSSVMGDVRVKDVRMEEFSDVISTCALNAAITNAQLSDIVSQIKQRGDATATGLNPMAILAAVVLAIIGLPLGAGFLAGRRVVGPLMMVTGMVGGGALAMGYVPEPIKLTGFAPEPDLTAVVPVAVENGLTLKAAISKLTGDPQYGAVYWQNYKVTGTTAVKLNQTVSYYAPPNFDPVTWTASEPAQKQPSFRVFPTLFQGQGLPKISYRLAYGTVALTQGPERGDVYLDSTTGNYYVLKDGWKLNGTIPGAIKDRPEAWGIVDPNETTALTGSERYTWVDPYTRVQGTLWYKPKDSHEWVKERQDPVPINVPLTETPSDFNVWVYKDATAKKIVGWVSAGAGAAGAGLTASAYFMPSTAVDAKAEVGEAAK
UniProt A0A509ZL19: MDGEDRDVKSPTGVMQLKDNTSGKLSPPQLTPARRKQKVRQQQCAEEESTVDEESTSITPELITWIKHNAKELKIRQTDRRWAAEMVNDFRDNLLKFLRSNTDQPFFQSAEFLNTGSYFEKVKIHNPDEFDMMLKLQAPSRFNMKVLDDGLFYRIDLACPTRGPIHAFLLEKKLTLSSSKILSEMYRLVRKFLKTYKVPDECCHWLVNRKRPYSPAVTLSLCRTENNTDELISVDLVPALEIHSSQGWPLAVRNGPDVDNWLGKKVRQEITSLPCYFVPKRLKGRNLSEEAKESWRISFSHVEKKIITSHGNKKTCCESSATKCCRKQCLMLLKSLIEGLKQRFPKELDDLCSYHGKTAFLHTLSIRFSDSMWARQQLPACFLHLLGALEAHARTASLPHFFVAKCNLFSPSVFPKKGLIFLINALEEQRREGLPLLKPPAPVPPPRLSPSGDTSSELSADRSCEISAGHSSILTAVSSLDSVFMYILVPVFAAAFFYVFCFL

Experiment in all cases: co-IP; GS cells co-transfected with two tagged plasmids (or empty vector), no SGIV infection, lysed 48 h post-transfection in IP lysis buffer; HA-tag, Flag-tag or GFP-Trap magnetic beads; immunoblot
(A western blot detects proteins with antibodies after separation by electrophoresis.)

Assay [1] addresses HA-tagged EcTBK1 (pHA-EcTBK1) (grouper (Epinephelus coioides)).
The target of assay [2] is Flag-tagged VP088 (pCMV-3×Flag-VP088) (Singapore grouper iridovirus (SGIV)) (UniProt Q5YFH7).
For assay [3], the target named is HA-tagged VP088 (pcDNA3.1-HA-VP088) (Singapore grouper iridovirus (SGIV)) (UniProt Q5YFH7).

These are yes or no findings as the source states them, for the method shown. Binding seen in cells or lysates may run through a third protein. Binding calls can cover weak binding; strength is not graded here.

Turning to “GFP-tagged VP088 (pEGFP-C1-VP088) (from UniProt Q5YFH7)”, the binding result in assay [1] is reported as “binds”.

Take “HA-tagged EcTBK1 (pHA-EcTBK1) (from UniProt A0A384WXS2)”: the binding result in assay [2] was “binds”.

With “Flag-tagged EccGAS (pFlag-EccGAS) (from UniProt A0A509ZL19)”, the binding entry in assay [3] is on record as “binds”.
